System: ATGL-KO iPSCs
Test: High throughput iPSC chemical screening, Oil Red O (ORO) lipid accumulation; note: test concentration or dose not given here
Type: cell-based, mouse
Conditions: normalized ORO level vs DMSO-treated cells; compound present during 7 days differentiation, 96-well; negative = decrease in lipid accumulation

`Br.CN1[C@@H]2CC[C@H]1C[C@@H](OC(=O)C(O)c1ccccc1)C2` (stereo partly drawn) [Homatropine hydrobromide (R,S)] gave a Z-score of 0.6653.

Reference: patent US9393221B2, “Methods and compounds for reducing intracellular lipid storage” (THE GENERAL HOSPITAL CORPORATION, priority 2011, dated 2016)
